Publication PMC10163288
The other results are listed elsewhere or left out.

B1: il2ra_site2_3nfp_sap_19_mot_HHH_b2_00992_af2_000000224_0001_1_18_H_._HHH_b2_03402_0001_0000100011_0000001_0_0001_af2pred_0001_1_af2pred_swapped (protein)
chain: SSSSSSSYKEAVEAALRFARKVEDEELVKIALEYARAVALMANDPELRELVEEAEERLSSSSSSS
B2: il2ra_site1_2b5i_sap_11_mot_HHH_b1_05608_000000027_0001_1_14_H_._HHH_b2_03832_af2_0001_0000100008_0000001_0_0001 (protein)
chain: SSSNERTFKAAERLLEEAIEDLREKGDEEVVEELEELLEEAKRKGDKRILREAMHVAQRALSSSS
B3: il2ra_site2_3nfp_sap_30_mot_HHH_b1_02813_000000037_0001_41_57_H_._ad6158629c6fd226c14646e2effd3054_0001_1_af2_0001_0000300022_0000001_0_0001 (protein)
chain: SSSSDLIEAVVESARHRLEKLNTEEAEELLERLEELLEEYREKGDPRIAIEVYELVRRIYSSSSS
B4: il2ra_site1_1z92_normal_mot_07d2d8a42fb0c6931fb03626c2a0eeb8_0001_000000072_0001_36_50_H_._f0ee23d083d0677da3dfcc8a6cd225b6_0001_af2_0001_0000100001_0000001_0 (protein)
chain: SEEEEEIEEEIKQVPDPVIREVLEILLRLIRLGDPSARFALEQLLKKLRQGNPRAARRIAEKLLR
B5: il2ra_site1_3nfp_sap_10_mot_HHH_b1_03420_af2_000000029_0001_41_57_H_._HHH_b2_06732_af2_0001_0000200008_0000001_0_0001_af2pred_0001_af2pred_1 (protein)
chain: SSSSDIEEAQELAKEVLKLLREGDKEEAEKVLEELEEIAEKRNSKVAKIFVERLKRLLERRSSSS
B6: il2ra_site1_3nfp_normal_mot_HHH_b1_05523_000000027_0001_1_19_H_._HHH_b1_07881_af2_0001_0000100003_0000001_0_af2pred_0001_af2pred_1 (protein)
chain: SSSSTEVSRRVLELIEEALELAQNGNPEEAEEVLREALKLAEEAGNESTARFIRKALEQSSSSSS
B7: il2ra_site2_2erj_normal_mot_HHH_b1_04373_af2_000000118_0001_18_33_H_._HHH_b2_03810_0001_0000100007_0000001_0 (protein)
chain: SSSSDDEELVRELLEEAEEAYEEGDLELVYELAVKALHVASKSNDPELQRLVAKFVEELASSSSS
B8: il2ra_site2_2erj_sap_28_mot_HHH_b1_06697_000000025_0001_41_54_H_._HHH_b1_07674_0001_0001200015_0000001_1_0001 (protein)
chain: SSSSSDVKEAYEEIAELLARAAHIKDPEEVRKLLEEAERLAEENNDPFARKYVEFARRDFSSSSS
B9: il2ra_site1_2b5i_normal_mot_HHH_b2_04910_000000118_0001_1_19_H_._HHH_b1_07445_0001_0000300015_0000001_0_af2pred_0001_af2pred_1 (protein)
chain: SSSSDEQRELLELLEQANRLDKNGDPEEAERLLEEALRLAEEAGSRALAKFLRVALRLLRSSSSS
B10: il2ra_site1_3nfp_normal_mot_HHH_b1_08274_000000052_0001_43_57_H_._HHH_b2_06250_0001_0000200010_0000001_0_af2pred_0001_af2pred_1 (protein)
chain: SSSSSSDAEEEVRELLEEARHIEDPREAERVFEEALEIARKYNDEEALKLIHEFIKEISSSSSSS
B11: il2ra_site1_2b5i_normal_mot_HHH_b2_04910_000000118_0001_1_19_H_._HHH_b1_04969_0001_0000600021_0000001_0_af2pred_dldesign_0_af2pred (protein)
chain: SSSSSNKGAEALKLFKETDEKFKTVSDEEAKKLLEETLEELKKLKKNVLVRMVEAALAELSSSSS
B12: il2ra_site2_2erj_normal_mot_6bd1339e93f6fdda22195c76da45ec5d_0001_000000136_0001_37_51_H_._HHH_b1_03999_0001_0000400017_0000001_1_af2pred_0001_1_af2pred_swapped (protein)
chain: SSSSDLEEEVRRLVEEAEELLERGDPERAAAVLLEAAHLAARNRNDELLELVARLFTRVARSSSS
B13: il2ra_site1_2b5i_normal_mot_HHH_b1_01949_af2_000000041_0001_1_19_H_._HHH_b1_06937_af2_0001_0000300018_0000001_0_af2pred_0001_af2pred_1 (protein)
chain: SSSSDEEYEEVDELYRRASELFRRGNKEEARELLEQAIRIAEERGDERVVKDLRHFLEAISSSSS
B14: il2ra_site2_3nfp_normal_mot_0136b98644bc9a8eb58b95019b738ebb_0001_1_000000071_0001_1_13_H_._HHH_b2_05054_0001_0000400019_0000001_0 (protein)
chain: SSSSSAEEDAEKALEILRDRGDEESLKELEELLKKVKEEGDPELRRELDRLLTKIYEELLSSSSS
B15: il2ra_site1_2b5i_sap_18_mot_e546d17bf4683a1997b2b4e1ffd0191e_0001_1_af2_000000072_0001_20_33_H_._HHH_b2_01886_0001_0000500046_0000001_0_0001 (protein)
chain: SSSSDEIDQEIDRLFHEASEAWRKGNREEAEKLLEEAIELARRGNDENILKDLEQMLERLGSSSS
B16: il2ra_site1_2b5i_normal_mot_HHH_b1_02217_af2_000000060_0001_42_56_H_._HHH_b1_08682_0001_0000300036_0000001_0_af2pred_dldesign_0_af2pred (protein)
chain: SSSSSSIDEIEKGFKEMERLRRAGKLEEAKELLEKNIKLAEEAGDKKTAAELKAYLERLESSSSS
B17: il2ra_site1_1z92_sap_26_mot_HHH_b2_02379_000000163_0001_38_52_H_._HHH_b1_02798_0001_0000200014_0000001_0_0001_af2pred_0001_af2pred_1 (protein)
chain: SSSSDLERQLRIVVRLAVEIAGLSEEDQKILEEVVEELVERGVSFKEAFQIIDRVAQELAESSSS
B18: il2ra_site1_3nfp_sap_15_mot_HHH_b2_04910_af2_000000236_0001_1_18_H_._HHH_b1_05877_0001_0000700066_0000001_0_0001_af2pred_0001_af2pred_1_swapped (protein)
chain: SSSSDEEVTRLIERALELAFEGNEEEVHKVLEEAERLARELNDPKLEELVERLQEQLEKLESSSS
B19: il2ra_site2_3nfp_sap_19_mot_HHH_b2_02633_000000119_0001_1_18_H_._HHH_b2_08153_0001_0000200006_0000001_0_0001 (protein)
chain: SSSSDVEEEVERLLEEIRRLIEEGDEEKAKRLLREVAHLAVEANNWELFARVAELATELFSSSSS

Each binder was assayed against il2ra, P01589 (assay: yeast display titration).

Binder | apparent Kd
B1 | inactive: no binding seen
B2 | inactive: no binding seen
B3 | inactive: no binding seen
B4 | inactive: > 8.93 nM
B5 | inactive: no binding seen
B6 | inactive: no binding seen
B7 | inactive: no binding seen
B8 | inactive: no binding seen
B9 | inactive: no binding seen
B10 | inactive: no binding seen
B11 | inactive: no binding seen
B12 | inactive: no binding seen
B13 | inactive: no binding seen
B14 | inactive: no binding seen
B15 | inactive: no binding seen
B16 | inactive: no binding seen
B17 | inactive: no binding seen
B18 | inactive: no binding seen
B19 | inactive: no binding seen

Two successive entries from above, quoted:
Binder | apparent Kd
B1 | inactive: no binding seen
B2 | inactive: no binding seen
